# Experimental data: PubChem BioAssay AID2685 (National Center for Advancing Translational Sciences (NCATS), 2010)
# This is one part of the list. The main result of the screen is listed elsewhere. These columns were measured beside it and carry no call. Most of these compounds were active or inconclusive in the main read-out, so they are no random draw. Potencies come from curve fits of mixed quality, noted in brackets.
# Test: qHTS Assay for Lipid Storage Modulators in Drosophila S3 Cells;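 on cell number change: cells counted by Cell Tracker Red CMTPX staining in the red channel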
# Settings: BODIPY lipid droplet fluorescence, 18-24 h; for cell number change: measured here: cell count max response, cells fed with added oleic acid
# Procedure, shortened: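 Drosophila S3 cells got compounds at several concentrations plus oleic acid (400 uM solution). Laser-scanning cytometry with 488 nm excitation read lipid droplets at 500-530 nm and cells at 575-640 nm. Percent activity was relative to 20 uM Triacsin C.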
# [1] = measured here: lipid fluorescence (Fed channel) AC50, cells fed with added oleic acid
# [2] = measured here: cell number channel AC50, cells fed with added oleic acid
Structure (SMILES),cell number change,AC50 [1],AC50 [2]
CCCc1nnc(NC(=O)C2CC(=O)N(C3CCCC3)C2)s1 (configuration not stated),18.7%,"29.1 µM [rising, partial curve]",
O=C(c1ccc(S(=O)(=O)Nc2cccc(C(F)(F)F)c2)cc1)N1CCOCC1,-7.08%,"29.1 µM [rising, single point]",
OCCNCc1cccc(OCc2ccccc2Cl)c1,,"5.8 µM [rising, single point]",
CN1N=C(C(C)(C)C)CC1=O,-18.6%,"20.6 µM [falling, single point]",
O=C(/C=C/c1ccco1)N(Cc1cccc(F)c1)C1CCS(=O)(=O)C1 (configuration not stated),-10.6%,"6.51 µM [rising, single point]",
COc1ccccc1N1CCN(C(=O)COc2cccc(C)c2C)CC1,27%,,
O=C(c1cc(COc2ccc(F)cc2Cl)on1)N1CCN(c2cnccn2)CC1,-3.66%,,
N#CC1=C(N)C2=CCCC[C@H]2[C@H](c2ccccc2)C1(C#N)C#N,0.0785%,"3.26 µM [falling, partial curve]",
CC(C)Oc1ccc(S(=O)(=O)N2CCOCC2)cc1NC(=O)CC1OC(=O)c2ccccc21 (configuration not stated),,"6.51 µM [falling, single point]",
COc1cccc(N2CC(C(=O)Oc3ccc4ccccc4c3)CC2=O)c1 (configuration not stated),-36.3%,"0.58 µM [falling, full curve, poor fit]","5.8 µM [falling, partial curve, poor fit]"
c1ccc(OCCCn2ccnc2)cc1,,"0.116 µM [falling, full curve, poor fit]",
CCC(C)(C)NC(=O)CN(C(=O)CCC(=O)Nc1nccs1)c1cccc(C)c1C,5.25%,,
Cc1csc(Nc2ccccc2C(F)(F)F)n1,-38%,"29.1 µM [falling, single point]","29.1 µM [falling, single point]"
COc1ccc(N(C)S(=O)(=O)c2cccc(C(=O)Nc3cccc(C(=O)NC4CC4)c3)c2)cc1,-10.3%,"13 µM [falling, partial curve, poor fit]",
CCCCN(C)C(=O)c1cc2cc3cc(OC)ccc3nc2o1,-18.1%,"32.6 µM [falling, single point]",
COCCCNC(=O)c1cccc(S(=O)(=O)N2CC3(C)CC2CC(C)(C)C3)c1 (configuration not stated),25%,,"4.11 µM [rising, single point]"
O=S1(=O)CCO[C@H]2Cc3ccccc3[C@H]2N1Cc1cccc(F)c1,14.7%,"29.1 µM [rising, single point]",
Cc1cc(C(=O)NC2CCN(Cc3ccccc3)CC2)n[nH]1,-7.65%,,
O=C(Nc1cccs1)Nc1c(F)c(F)c(F)c(F)c1F,-29.1%,"6.51 µM [rising, partial curve, poor fit]","0.116 µM [rising, full curve, poor fit]"
COc1ccc(-c2nc(CS(=O)CC(=O)NCCc3ccc(OC)c(OC)c3)c(C)o2)cc1 (configuration not stated),-28.4%,"29.1 µM [falling, single point]",
O=S(=O)(Nc1ccc(-c2ccc3nncn3n2)cc1)c1cc(F)ccc1F,13.3%,,
O=C(O)CCC(=O)Nc1ccccc1Oc1ccccc1,-48.2%,,
O=C(O)Cc1coc(-c2ccc(F)cc2)n1,,,"2.59 µM [falling, partial curve]"
CCCc1cc(-c2[nH]ncc2-c2ccc3c(c2)OCCCO3)c(O)cc1OC,-68.8%,"20.6 µM [falling, single point]","18.4 µM [falling, single point]"
COc1ccc(OC)c(C(=O)Cn2nnc3ccccc3c2=O)c1,-45.1%,"29.1 µM [falling, single point]","2.06 µM [falling, partial curve]"
COc1ccc(N(CC(=O)NCCc2ccc(OC)c(OC)c2)S(=O)(=O)c2c(C)noc2C)cc1,-0.59%,"0.58 µM [rising, single point]",
O=C(COc1cccc(Cl)c1)Nc1cc(S(=O)(=O)N2CCOCC2)ccc1N1CCOCC1,-36.2%,"14.6 µM [falling, partial curve]","16.4 µM [falling, partial curve]"
Cc1oc(C(=O)O)cc1COc1ccccc1Cl,1.06%,"29.1 µM [falling, partial curve, poor fit]",
CCOC(=O)c1[nH]c2cc(OC)c(OC)cc2c1N,90%,"4.11 µM [rising, partial curve]","29.1 µM [rising, single point]"
COc1ccc(N(C(=O)c2cccnc2)S(=O)(=O)c2ccc(OC)c(OC)c2)cc1,2.88%,"29.1 µM [rising, single point]",

# Single entries from above:
# `COc1ccc(N(C)S(=O)(=O)c2cccc(C(=O)Nc3cccc(C(=O)NC4CC4)c3)c2)cc1` – AC50 [1]: 13 µM [falling, partial curve, poor fit]
# `O=C(c1ccc(S(=O)(=O)Nc2cccc(C(F)(F)F)c2)cc1)N1CCOCC1` – AC50 [1]: 29.1 µM [rising, single point]
